# In patent US20240101667A1, “METHODS FOR IDENTIFYING LILRB-BLOCKING ANTIBODIES” (THE BOARD OF REGENTS OF THE UNIVERSITY OF TEXAS SYSTEM, priority 2020, published 2024):
# Protein sequences, listed by entry. Tags and fused reporters are not part of them. Residues count along the entry.
# UniProt O75022, residues 24-631: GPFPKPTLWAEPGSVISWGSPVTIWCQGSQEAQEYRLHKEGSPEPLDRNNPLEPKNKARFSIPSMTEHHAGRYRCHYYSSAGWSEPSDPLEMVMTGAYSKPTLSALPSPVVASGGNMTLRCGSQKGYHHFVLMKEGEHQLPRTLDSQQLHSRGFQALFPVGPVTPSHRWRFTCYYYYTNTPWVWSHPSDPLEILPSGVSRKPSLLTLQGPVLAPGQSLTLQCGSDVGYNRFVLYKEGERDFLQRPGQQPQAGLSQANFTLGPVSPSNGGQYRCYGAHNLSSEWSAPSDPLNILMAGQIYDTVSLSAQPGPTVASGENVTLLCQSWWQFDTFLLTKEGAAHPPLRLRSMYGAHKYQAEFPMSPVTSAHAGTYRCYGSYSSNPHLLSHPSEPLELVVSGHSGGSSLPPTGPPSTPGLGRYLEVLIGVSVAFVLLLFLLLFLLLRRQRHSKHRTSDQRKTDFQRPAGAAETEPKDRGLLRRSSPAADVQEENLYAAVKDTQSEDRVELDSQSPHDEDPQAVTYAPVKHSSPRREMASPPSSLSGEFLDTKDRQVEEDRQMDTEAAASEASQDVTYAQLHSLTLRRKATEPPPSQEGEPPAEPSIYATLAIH
# UniProt P29350: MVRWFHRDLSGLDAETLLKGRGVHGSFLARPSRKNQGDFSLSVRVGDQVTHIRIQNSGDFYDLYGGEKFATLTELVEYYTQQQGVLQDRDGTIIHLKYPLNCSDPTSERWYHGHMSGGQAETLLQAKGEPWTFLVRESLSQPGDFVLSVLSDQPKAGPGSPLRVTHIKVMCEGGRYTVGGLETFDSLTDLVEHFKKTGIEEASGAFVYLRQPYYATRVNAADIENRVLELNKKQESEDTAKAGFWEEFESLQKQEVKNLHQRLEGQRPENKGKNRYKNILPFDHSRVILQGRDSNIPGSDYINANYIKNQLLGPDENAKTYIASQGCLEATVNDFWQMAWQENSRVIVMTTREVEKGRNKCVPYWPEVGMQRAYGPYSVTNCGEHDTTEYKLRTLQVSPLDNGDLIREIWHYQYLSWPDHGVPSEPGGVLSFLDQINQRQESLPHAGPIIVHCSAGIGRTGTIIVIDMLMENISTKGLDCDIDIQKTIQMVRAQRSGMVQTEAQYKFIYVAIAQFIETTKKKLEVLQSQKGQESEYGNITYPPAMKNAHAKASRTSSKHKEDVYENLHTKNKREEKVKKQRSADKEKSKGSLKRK
# No constants are given. Whether binding was seen depends on the method and setting. In cells and extracts the contact can be indirect. Some results given as binding are weak or reduced against the parent protein; the word gives no strength.
# Target: LILRB3-hFc (full-length LILRB3 fused with hFc at the C-terminus) (human) (UniProt O75022)
# Assay: co-immunoprecipitation in THP-1 cells stably expressing LILRB3-hFc
substance,measurement,value
SHP-1 (from UniProt P29350 1-595) (enzyme),binding,binds
